Measurements from PubChem BioAssay AID504444 (National Center for Advancing Translational Sciences (NCATS), 2011).
Hit rate of the full screen: of about 360,000 compounds, about 7,500 (2.1%) were called active. Inconclusive means that the source gave no clear call. Such entries were picked first, then a sample of the others. The call rests on the fitted dose curve; in most records, active means well fitted inhibition curve with a large enough effect; inconclusive means small, poorly fitted or top-dose-only effect, or effect the other way; inactive means flat fitted curve, though single readings scatter. A potency beside an inconclusive call is a rough fit, not a confirmed value.

Test: Nrf2 qHTS screen for inhibitors; further: nearly all actives have a fitted effect of over 60% in size
Details: A549 ARE-Fluc reporter, luciferase luminescence, 18-24 h; series mostly up to 46 µM
Method in brief: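 In this cell-based qHTS, ARE-driven firefly luciferase in A549 cells reports Nrf2 activity; the luminescent signal after BugLite lysis is the measured value, with a prior CellTiter-Fluor read for cell health.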
Potency means the concentration at half of the fitted maximal effect.

SMILES | Potency
CCN(CC)c1ccc2cc(S(=O)(=O)c3ccc(Cl)cc3)c(=O)oc2c1 | inconclusive: 25.9 µM [falling, single point]
CCOc1ccc(-c2nc(C#N)c(N3CCN(C)CC3)o2)cc1 | inconclusive: 25.9 µM [falling, single point]
CC(C)=CC(=O)Nc1ccc(OCc2ccccc2)cc1 | inconclusive: 0.651 µM [activator, partial curve, poor fit]
O=C(Nc1cccnc1)c1cc2c(s1)-c1ccccc1OC2 | inconclusive: 18.4 µM [falling, single point]
CCn1c(NC(=O)c2cccs2)nc2ccccc21 | inconclusive: 2.06 µM [activator, partial curve, poor fit]
COc1ccc(CCc2ccc3ccccc3n2)cc1 | inconclusive: 18.4 µM [activator, single point]
CSc1ncccc1C(=O)NC1CCCc2c1cnn2-c1ccc(C)c(C)c1 (configuration not stated) | inconclusive: 18.4 µM [falling, single point]
CN(C)c1cc[n+](CC(=O)c2ccc(OC(F)F)cc2)cc1 | active: 20.6 µM
COc1ccc2oc3cc(C)[n+]([O-])c(-c4ccc(C)cc4)c3c2c1 | active: 25.9 µM
O=C(c1ccc(-n2cncn2)c([N+](=O)[O-])c1)N1CCN(S(=O)(=O)c2ccccc2F)CC1 | inactive
Cc1cccc(OCCSc2nncn2C)c1 | inconclusive: 18.4 µM [activator, single point]
CC[C@]12c3[nH]c4ccc(Cl)cc4c3CCN1C(=O)[C@@H](CC(=O)NCCc1ccccn1)C[C@@H]2C(=O)N1CCN(C(=O)C2CC2)CC1 | inconclusive: 2.91 µM [activator, partial curve, poor fit]
O=C1NCC(c2ccccc2)C1C(=O)N/N=C\c1ccc(-c2cccc(Cl)c2Cl)o1 (configuration not stated) | inconclusive: 29.1 µM [falling, single point]
CCCc1cc(=O)oc2cc(C)cc(OCc3nn[nH]n3)c12 | inactive
COc1ccc2c(CNCCc3ccc(SC)cc3)c(C(=O)O)n(Cc3ccc(F)cc3)c2c1 | inconclusive: 29.1 µM [falling, single point]
CC(C)COc1cccc(-c2cc(C(=O)N/N=C/c3ccncc3)c3ccccc3n2)c1 | inconclusive: 13 µM [activator, partial curve]
Cc1ccsc1CCN1C(=O)N(c2ccccc2)C(=O)C1CC(=O)Nc1ccc(Cl)cc1 (configuration not stated) | inconclusive: 29.1 µM [falling, single point]
Cc1ccccc1-n1c(SCC(=O)Nc2ccccc2Cl)nc2n[nH]c(C)c2c1=N | inconclusive: 29.1 µM [falling, single point]
O=c1[nH]c2cc(Cl)cc(Cl)c2[nH]c1=O | inactive
COc1ccc(C(=O)NCc2nnc(SCC(=O)c3ccc(F)cc3)n2C)cc1OC | inactive
COc1ccc(S(=O)(=O)N2CCCCC2)cc1NC(=O)CCc1nc2ccccc2c(=O)[nH]1 | inconclusive: 18.4 µM [falling, single point]

SMILES | Potency
O=S1(=O)N=C(Oc2cccc(-c3ccccc3)c2)c2ccccc21 | inactive
CCn1c(C)csc1=NC(=O)c1ccccc1O | inconclusive: 16.4 µM [activator, partial curve]
COc1ccc(N2CCN(C(=O)CSc3nc(-c4ccc(C(C)C)cc4)no3)CC2)cc1 | inconclusive: 1.3 µM [activator, full curve]
COC(=O)[C@@]1(Cc2ccc(F)cc2)[C@H]2c3cc(C(=O)N(C)C)n(CCc4ccc(OC)c(Br)c4)c3C[C@H]2CN1C(=O)c1ccccc1 | inconclusive: 20.6 µM [falling, single point]
O=C(CNC(=O)c1ccccc1)OCc1cc(=O)n2nc(C3CCCCC3)sc2n1 | inconclusive: 16.4 µM [activator, partial curve, poor fit]
Cc1ccc(NC(=O)CSc2ncccn2)c([N+](=O)[O-])c1 | inconclusive: 29.1 µM [activator, single point]
CCCN1CCC(=O)N([C@H](CSc2ccc(Br)cc2)c2ccccc2)CC1 | inconclusive: 16.4 µM [activator, single point]
COc1ccccc1N/N=C/c1ccc2c(c1)OCO2 | inconclusive: 10.3 µM [falling, partial curve]
CC(C)[C@H](NS(=O)(=O)c1cccc(Cl)c1)C(=O)OCC(=O)NC(=O)CN1CCCC1=O | inconclusive: 4.11 µM [falling, full curve, poor fit]
COC(=O)C1C(=O)C2=C(CC1C)NC(C)=C(C(=O)OCCOc1ccccc1)C2c1ccc(C)o1 (configuration not stated) | inconclusive: 32.6 µM [falling, single point]
CCc1ccc(-c2cc(C)no2)cc1S(=O)(=O)NCCCN1CCN(c2ccccc2)CC1 | active: 13 µM
COc1cc(/C=N/NC(=O)c2cc(-c3ccco3)nc3ccccc23)cc(OC)c1O | inactive
COc1cc(NS(=O)(=O)c2ccc([N+](=O)[O-])cc2)c2ncccc2c1 | inconclusive: 4.61 µM [falling, partial curve]
CC1=C(/C=C/C(C)=C/C=C/C(C)=C/CO)C(C)(C)CCC1 | inactive
CCCCOc1cccc(OCC(=O)Nc2nc3ccccc3[nH]2)c1 | inactive
COc1ccc(CNC(=O)Cc2c(C)c3cc4c(C)coc4cc3oc2=O)cc1OC | inactive
CC(=O)NNC(=S)NCCc1ccccc1 | inconclusive: 4.11 µM [falling, partial curve, poor fit]
CCSc1nnc(NC(=O)CSc2nc3c(c(=O)n2CCOC)SC(C)C3)s1 (configuration not stated) | inconclusive: 14.6 µM [falling, single point]
CCN(CC)C(=O)COc1ccc2c3c(c(=O)oc2c1C)CCCC3 | inconclusive: 29.1 µM [falling, single point]
Cc1ccc(Nc2ncnc(-n3cccc3)n2)cc1Cl | inconclusive: 2.59 µM [activator, full curve]
Cc1cccc(OCC(=O)Nc2ccc(N3CCN(C(=O)c4ccco4)CC3)cc2)c1 | active: 20.6 µM

In the list so far, 3 have a nitro group on carbon:
SMILES | Potency
O=C(c1ccc(-n2cncn2)c([N+](=O)[O-])c1)N1CCN(S(=O)(=O)c2ccccc2F)CC1 | inactive
Cc1ccc(NC(=O)CSc2ncccn2)c([N+](=O)[O-])c1 | inconclusive: 29.1 µM [activator, single point]
COc1cc(NS(=O)(=O)c2ccc([N+](=O)[O-])cc2)c2ncccc2c1 | inconclusive: 4.61 µM [falling, partial curve]
